Results are given in words; binding and its absence hold for the method and conditions named. Some results given as binding are weak or reduced against the parent protein; the word gives no strength.
How the values were obtained:
Assay in all cases: two-hybrid; Gal4 BD and AD fusions (pGBKT7/pGADT7 or pG4BDN22/pG4ADHAN111) co-transformed into PJ69-4A; growth after 3 days at 30 °C on SDC-His (weak), SDC-His + 1 mM 3-AT (medium), SDC-Ade (strong)
[1] = biological target: T1, Red1 (E32A, D33A, E35A) (S. pombe) (UniProt Q9UTR8)
T1 sequence: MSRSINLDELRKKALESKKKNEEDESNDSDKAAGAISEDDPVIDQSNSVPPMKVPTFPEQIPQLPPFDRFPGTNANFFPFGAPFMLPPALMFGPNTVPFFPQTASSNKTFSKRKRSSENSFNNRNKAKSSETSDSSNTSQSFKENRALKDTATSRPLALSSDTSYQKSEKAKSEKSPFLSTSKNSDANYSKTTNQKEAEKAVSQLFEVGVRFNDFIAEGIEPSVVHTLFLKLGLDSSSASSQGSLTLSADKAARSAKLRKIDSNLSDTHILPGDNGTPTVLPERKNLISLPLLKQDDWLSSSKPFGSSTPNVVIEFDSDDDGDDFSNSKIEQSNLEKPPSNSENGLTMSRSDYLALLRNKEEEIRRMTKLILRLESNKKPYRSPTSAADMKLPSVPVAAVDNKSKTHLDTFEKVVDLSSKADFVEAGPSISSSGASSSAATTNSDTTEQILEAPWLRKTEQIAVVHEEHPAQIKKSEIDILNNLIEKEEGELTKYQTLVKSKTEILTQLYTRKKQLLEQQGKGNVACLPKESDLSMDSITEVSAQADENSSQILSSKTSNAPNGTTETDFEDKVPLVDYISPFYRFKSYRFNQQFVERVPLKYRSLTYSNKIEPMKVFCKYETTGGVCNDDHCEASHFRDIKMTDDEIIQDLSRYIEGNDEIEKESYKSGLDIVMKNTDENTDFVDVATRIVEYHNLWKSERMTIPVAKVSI

[2] = biological target: T2, Red1 (spRed1), full length (S. pombe) (UniProt Q9UTR8)
T2 sequence: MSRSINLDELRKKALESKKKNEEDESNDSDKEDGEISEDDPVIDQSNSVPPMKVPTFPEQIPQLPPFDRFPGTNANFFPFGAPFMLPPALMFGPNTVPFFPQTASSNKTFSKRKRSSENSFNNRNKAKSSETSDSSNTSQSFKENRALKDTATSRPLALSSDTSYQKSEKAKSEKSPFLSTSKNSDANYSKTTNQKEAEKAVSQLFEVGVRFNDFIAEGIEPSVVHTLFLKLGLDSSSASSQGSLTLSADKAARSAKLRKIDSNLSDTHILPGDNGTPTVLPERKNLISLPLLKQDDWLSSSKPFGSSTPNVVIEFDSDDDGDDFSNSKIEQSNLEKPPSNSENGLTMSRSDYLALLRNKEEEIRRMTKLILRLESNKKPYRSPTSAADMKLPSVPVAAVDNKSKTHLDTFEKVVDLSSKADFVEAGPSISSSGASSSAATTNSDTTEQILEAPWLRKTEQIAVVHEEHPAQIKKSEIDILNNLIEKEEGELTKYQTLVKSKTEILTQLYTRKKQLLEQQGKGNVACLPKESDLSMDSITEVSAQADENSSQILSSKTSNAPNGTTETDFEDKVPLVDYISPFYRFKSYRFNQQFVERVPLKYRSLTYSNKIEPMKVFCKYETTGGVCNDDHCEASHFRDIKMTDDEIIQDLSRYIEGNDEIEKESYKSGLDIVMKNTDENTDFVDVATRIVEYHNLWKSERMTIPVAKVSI

[3] = biological target: T3, full-length spRed1 (D33A, E35A) (S. pombe) (UniProt Q9UTR8)
T3 sequence: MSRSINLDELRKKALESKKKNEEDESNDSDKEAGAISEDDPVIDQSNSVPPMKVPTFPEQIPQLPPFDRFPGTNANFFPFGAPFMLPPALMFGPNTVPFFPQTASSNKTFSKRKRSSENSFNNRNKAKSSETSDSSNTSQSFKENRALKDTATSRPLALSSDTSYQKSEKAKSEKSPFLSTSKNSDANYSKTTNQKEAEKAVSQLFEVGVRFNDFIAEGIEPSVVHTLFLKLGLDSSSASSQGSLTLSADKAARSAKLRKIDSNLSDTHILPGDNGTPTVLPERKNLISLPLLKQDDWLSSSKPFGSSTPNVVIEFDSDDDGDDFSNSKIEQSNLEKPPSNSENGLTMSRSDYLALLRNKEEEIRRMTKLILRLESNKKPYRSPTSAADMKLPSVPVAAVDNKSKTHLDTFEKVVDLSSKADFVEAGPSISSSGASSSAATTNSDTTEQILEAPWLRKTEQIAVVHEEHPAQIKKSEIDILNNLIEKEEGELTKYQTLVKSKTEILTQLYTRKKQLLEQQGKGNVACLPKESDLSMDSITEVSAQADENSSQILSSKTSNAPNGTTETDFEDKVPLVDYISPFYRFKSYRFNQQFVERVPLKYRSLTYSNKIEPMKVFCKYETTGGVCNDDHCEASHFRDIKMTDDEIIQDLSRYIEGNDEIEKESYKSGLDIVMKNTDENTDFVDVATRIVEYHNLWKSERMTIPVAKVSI

binding [1]: no binding
binding [2]: binds
binding [3]: binds weakly
B1: Ars2 (spArs2), full length (protein, UniProt O94326 1-609)
chain: MSEVHQESEVEYSRWKRERSPERSQRRSQSPPGEQSAYHRERSPLRKRGNYYDDRTRASGPYPTFTKPLIDPYTQTNAVSYERFIRWYSKENHISATTEDLYNSLHGTYNNYKQDLYARTARSFVESHCDEAWFEDSYWVDESQGRVLEVSENEKSYRRALYDKFMDRLDAGYYDDFQLPTAEDVIEKPSIPDNDTDDSILPSNDPQLSKWNQDSRNDAMENTLLVSHVLPNISVAQIHNALDGISFVQHFSLSTINLIKNDERSLWVHFKAGTNMDGAKEAVDGIQLDSNFTIESENPKIPTHTHPIPIFEIASSEQTCKNLLEKLIRFIDRASTKYSLPNDAAQRIEDRLKTHASMKDDDDKPTNFHDIRLSDLYAEYLRQVATFDFWTSKEYESLIALLQDSPAGYSRKKFNPSKEVGQEENIWLSDLENNFACLLEPENVDIKAKGALPVEDFINNELDSVIMKEDEQKYRCHVGTCAKLFLGPEFVRKHINKKHKDWLDHIKKVAICLYGYVLDPCRAMDPKVVSTSYVSLQILNKPYVGFRNINANYTFPTTSYSRRNDEEITSGASSQKSYSRQEPMIHRREFYRTYQDLDAPNQEVPELDY

Reference: paper PMC8187409, “The zinc-finger protein Red1 orchestrates MTREC submodules and binds the Mtl1 helicase arch domain” (Nature Communications, 2021)
